Results as given in PMC7819943, “Rice protein-binding microarrays: a tool to detect cis-acting elements near promoter regions in rice”.
The other results are listed elsewhere or left out.

target: T1, OsSMF1 (Oryza sativa, UniProt Q6ZLB0 1-436); test: protein-binding microarray (RPBM); PBS, 2% BSA, 51.3 ng/ul salmon testes DNA, 50 uM zinc acetate, 200 nM TF, 25 C, 1 h; high values mean tight binding; conditions: protein: recombinant; tags: N-terminal polyhistidine and DsRed monomer fusion (pET32a); chain copies: 2; label: CyDye5-dUTP incorporated in the synthesized complementary strand; 3' TTTTT single-stranded linker to array surface; dsDNA, one strand shown
T1 sequence: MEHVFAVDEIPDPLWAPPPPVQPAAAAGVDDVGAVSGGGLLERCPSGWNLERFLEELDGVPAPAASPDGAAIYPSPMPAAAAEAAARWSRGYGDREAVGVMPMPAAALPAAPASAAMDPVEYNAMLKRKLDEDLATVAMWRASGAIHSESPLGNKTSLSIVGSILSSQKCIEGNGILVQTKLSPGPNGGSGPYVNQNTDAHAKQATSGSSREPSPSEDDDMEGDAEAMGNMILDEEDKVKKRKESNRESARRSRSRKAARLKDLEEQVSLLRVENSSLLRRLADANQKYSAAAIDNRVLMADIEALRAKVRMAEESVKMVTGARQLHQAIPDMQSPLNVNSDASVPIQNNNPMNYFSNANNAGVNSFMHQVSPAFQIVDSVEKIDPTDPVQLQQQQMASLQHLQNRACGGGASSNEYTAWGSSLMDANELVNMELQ
Summary of the method: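 The binding signal is fluorescence intensity per array feature (arbitrary units). Readings came from an Axon 4000B scanner after a washed, 2% BSA-blocked, double-stranded custom Agilent array had been incubated for 1 h at 25 °C with 200 nM protein and 50 µM zinc acetate. The protein was a Ni–NTA-purified transcription factor fused N-terminally to polyhistidine and DsRed, expressed in E. coli BL21-CodonPlus.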

Sequence | binding signal
GGTGGGACGTGGTGGGCGTCAAGGCGGCGGTGGGAGGGGACGGAGTCACCTAGTGCAG | 5220 fluorescence intensity (a.u.)
TTATCCATTTTACCCACTTTGTCCATACCCATTTGTTATGCGGAGTCACCTAGTGCAG | 3960 fluorescence intensity (a.u.)
GCGATGCCTCTGAGAAGGGCGCGTGGACCTCCAGCAGCATCGGAGTCACCTAGTGCAG | 3540 fluorescence intensity (a.u.)
CCCGTTGTCACCAACCTCCACGCAGGATCCGCACCGCCGCCGGAGTCACCTAGTGCAG | 4670 fluorescence intensity (a.u.)
GAGCTCGCCCACTGCCGCCACGTTCCTGCTTCGGCCACCTCGGAGTCACCTAGTGCAG | 4020 fluorescence intensity (a.u.)
CTTCCAGCAAGGTGTGTAGCGTCCACAGGTGTCACCGATGCGGAGTCACCTAGTGCAG | 4500 fluorescence intensity (a.u.)
CAGTGTACTAGTCTATGTACGTGTTGGACTCGTTCTTCTCCGGAGTCACCTAGTGCAG | 3860 fluorescence intensity (a.u.)
CCACCCTGACATGTGGGGTCCACGTAGATCCTACGCTGATCGGAGTCACCTAGTGCAG | 11000 fluorescence intensity (a.u.)
AGCGCCTGCCACCCTGACACGTGTCCATCTGTTCGGACAACGGAGTCACCTAGTGCAG | 9180 fluorescence intensity (a.u.)
TAATTTGGGTAATTACTACTGGTAATTGCGTTAATCTGGTCGGAGTCACCTAGTGCAG | 22900 fluorescence intensity (a.u.)
GCATATGGGGCATATATACGTACATGACTGAATCATCGTTCGGAGTCACCTAGTGCAG | 3250 fluorescence intensity (a.u.)
TATTAGCGTGTGCTATCCACGTGGCAGCCGACGATAAGGTCGGAGTCACCTAGTGCAG | 10600 fluorescence intensity (a.u.)
CACCTCACTCCGCTAGCGCCGCTCTCCCTCCTCACGTCACCGGAGTCACCTAGTGCAG | 4410 fluorescence intensity (a.u.)
CATGTCTGGACCTGGAGGAGGAGGTCATGGCCTCTACGAGCGGAGTCACCTAGTGCAG | 33900 fluorescence intensity (a.u.)
CATTGTAATCGTTCGATATGATTGTCGATGAACTACATGCCGGAGTCACCTAGTGCAG | 3320 fluorescence intensity (a.u.)
TTTTCAGTGCTCTGCATCACACCATCTGTCATGTCAAGATCGGAGTCACCTAGTGCAG | 3530 fluorescence intensity (a.u.)
TTGGAGGGGAAGCTATCGTGTATCCACTGCGGAGCACGGCCGGAGTCACCTAGTGCAG | 3650 fluorescence intensity (a.u.)
CCTTCCCTTCTTTAGCGCGGCCACGTCGCGGCGCCTCGCGCGGAGTCACCTAGTGCAG | 6500 fluorescence intensity (a.u.)
CCTCCCCAACCACCCGCTGTGTCATCTGCGACCTCAATTTCGGAGTCACCTAGTGCAG | 4520 fluorescence intensity (a.u.)
GAAATGGATATGGCGTGGAGTGTTTCATTGCTAGTAGGAGCGGAGTCACCTAGTGCAG | 3680 fluorescence intensity (a.u.)
AGGGGTGAGAATGACACGTGGGGCCATATGTCGGTGGGTCCGGAGTCACCTAGTGCAG | 6160 fluorescence intensity (a.u.)

Sequence | binding signal
CATCACACCACACCACACACCGGCCAGCTCAGGAATAGGGCGGAGTCACCTAGTGCAG | 3440 fluorescence intensity (a.u.)
GTATTGTGTCCGGTTTTAACGCCTACGTGGCTTCTTTTGACGGAGTCACCTAGTGCAG | 18800 fluorescence intensity (a.u.)
CTATTATCATACTCTTTAGTGTGCACGTGTGCTTTATCTCCGGAGTCACCTAGTGCAG | 5500 fluorescence intensity (a.u.)
CCCACACACCAGGTTCTTGAGAGGGAGATGATGTGTCAATCGGAGTCACCTAGTGCAG | 6850 fluorescence intensity (a.u.)
GCCTATGTCCAGATTTATTCTACTAGAATGTGTCATATCCCGGAGTCACCTAGTGCAG | 3470 fluorescence intensity (a.u.)
CTCTATCTATTCTATTAGAATGCGTCATATCTATATGAAACGGAGTCACCTAGTGCAG | 3740 fluorescence intensity (a.u.)
AGTCGTGTACTCGTGTACTACCAGCAATCTGAAATCTGAACGGAGTCACCTAGTGCAG | 7600 fluorescence intensity (a.u.)
TAGATTTGGTCCAGATGGTGCTGATCTGTCGGATTTTGTACGGAGTCACCTAGTGCAG | 4540 fluorescence intensity (a.u.)
ATAGGAAGACTTCGACATTTTCAAACACTTGAGGACAACTCGGAGTCACCTAGTGCAG | 32600 fluorescence intensity (a.u.)
TGGAAGTGCAAGCATACCGATCCACGTTCACTTATCAGCCCGGAGTCACCTAGTGCAG | 3430 fluorescence intensity (a.u.)
CTTTCTCCGTTTCTTCCATCTCCGTCAACCTACCGGCGTACGGAGTCACCTAGTGCAG | 3890 fluorescence intensity (a.u.)
AGGCAGGAAGGTACGCAGCCAGGGGTTGTTACGTGGAATACGGAGTCACCTAGTGCAG | 3220 fluorescence intensity (a.u.)
TAGCGGCAGCTAAGCACACGTGTAGGATCGCCAGGCGCGCCGGAGTCACCTAGTGCAG | 4880 fluorescence intensity (a.u.)
CGATGGCGTCCTCGGCCTTGGGGAGCAGCAACAGCAGCGACGGAGTCACCTAGTGCAG | 3770 fluorescence intensity (a.u.)
ATTGGATCCGGGGAGGAGGAGGTGGGGTTCGGTTTCGTGCCGGAGTCACCTAGTGCAG | 3820 fluorescence intensity (a.u.)
CCCCTGATAATTGCGTCGTTGTACCATGGCTGTGAGGGCTCGGAGTCACCTAGTGCAG | 3410 fluorescence intensity (a.u.)
AAAGCTCAACATGCATTGAGACACATCACCCTTTAAAACTCGGAGTCACCTAGTGCAG | 4160 fluorescence intensity (a.u.)
ACTTCTGTTTTACCGAAATAACATATTACGTAGAGATTTTCGGAGTCACCTAGTGCAG | 16800 fluorescence intensity (a.u.)
ATCCCCTTCCCACTCCTCGGTGACGCTGCAACCACCTTTCCGGAGTCACCTAGTGCAG | 6940 fluorescence intensity (a.u.)
CCTGAAAGATGCATGTTGACTAGCCTTGATGACTACCAGACGGAGTCACCTAGTGCAG | 4300 fluorescence intensity (a.u.)
TAATTTGGCCTGGTTATTTGGATGCATCGAAGAGTCCACGCGGAGTCACCTAGTGCAG | 3340 fluorescence intensity (a.u.)

Single values from the list.
For binding signal, GGTGGGACGTGGTGGGCGTCAAGGCGGCGGTGGGAGGGGACGGAGTCACCTAGTGCAG shows 5220 fluorescence intensity (a.u.)
For binding signal, CCTCCCCAACCACCCGCTGTGTCATCTGCGACCTCAATTTCGGAGTCACCTAGTGCAG shows 4520 fluorescence intensity (a.u.)
For binding signal, TATTAGCGTGTGCTATCCACGTGGCAGCCGACGATAAGGTCGGAGTCACCTAGTGCAG shows 10600 fluorescence intensity (a.u.)
